## Screening data, single-dose tests

The chains behind the UniProt entries cited, without tags or fusion partners. Residues count along the entry.
UniProt Q8IDJ8, 1-583: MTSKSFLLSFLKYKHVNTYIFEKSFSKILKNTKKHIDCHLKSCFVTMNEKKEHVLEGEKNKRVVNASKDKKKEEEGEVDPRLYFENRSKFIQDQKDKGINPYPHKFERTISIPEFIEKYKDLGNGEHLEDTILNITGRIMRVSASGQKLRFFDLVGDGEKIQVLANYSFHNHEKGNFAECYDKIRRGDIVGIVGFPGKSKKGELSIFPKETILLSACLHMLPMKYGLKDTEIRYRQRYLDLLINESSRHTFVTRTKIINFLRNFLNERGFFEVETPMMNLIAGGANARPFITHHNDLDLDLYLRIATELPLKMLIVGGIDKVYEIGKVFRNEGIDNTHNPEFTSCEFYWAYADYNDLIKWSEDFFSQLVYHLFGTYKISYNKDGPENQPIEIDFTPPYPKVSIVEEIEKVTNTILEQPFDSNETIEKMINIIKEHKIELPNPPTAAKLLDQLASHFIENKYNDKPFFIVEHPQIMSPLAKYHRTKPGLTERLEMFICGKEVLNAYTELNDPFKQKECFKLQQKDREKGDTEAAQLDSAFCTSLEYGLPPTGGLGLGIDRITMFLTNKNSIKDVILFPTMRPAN

Data taken from ChEMBL document CHEMBL3988442, “University of Dundee, Small-Polar-MMV Screening Library” (2021).

T. brucei: 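Whole-parasite assay of Trypanosoma brucei over 72 hours; the read-out is not stated. Compounds at 30 µM. Higher reads as stronger inhibition (inferred: compounds with an IC50 in retests scored well above the rest). Values scatter widely below zero; nearly all retest evidence comes from the higher of the two concentrations used. Size under these conditions: about 64,000 compounds, about 940 of them at 50% or above in at least one test.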
PfKRS1: 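Enzyme assay of the cytosolic lysyl-tRNA synthetase in 384-well plates, read by luminescence. Target: Lysine-tRNA ligase, Plasmodium falciparum 3D7 (UniProt Q8IDJ8). Concentration: 30 µM. Higher reads as stronger inhibition, judged from the few compounds that gave an IC50. About 69,000 compounds were tested under these conditions; 0.071% (about 49) showed 50% or more at least once.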

Results are given as percent effect.
How 0% and 100% were set is not recorded. Most values in the screen are low, and negative values occur.
Compounds were drawn at random from those tested, without regard to their results.
A dash means the value is not listed here; it may have been measured.

Compound,T. brucei,PfKRS1
COc1cc(C(=O)NS(=O)(=O)c2cccc(C#N)c2)cc(OC)c1C,-12.37%,-0.8306%
CC(=O)NCC(=O)N1CCn2cc(CN3CCCCC3)nc2C1.O=C(O)C(F)(F)F,-3.121%,-
Cc1cccc(C(=O)N2CC[C@H]3C[C@@H](C)O[C@@H]3C2)n1,-,1.102%
c1ccc(C[C@H]2CN(Cc3nccs3)CC[C@@H]2OCC2CC2)cc1,-,-3.437%
O=C(Nc1ccc(CC(=O)N2CCSCC2)cc1)NC1CCCC1,-41.61%,-0.3372%
NC(=O)NC(CC(=O)N1CCc2sccc2C1)c1cccc(Br)c1 (stereo not drawn),-38.05%,0.01109%
CCOC(C)c1nccn1CCC(=O)Nc1cc(C)on1 (stereo not drawn),-9.104%,5.721%
O=C([C@H]1CCCO1)N1Cc2nccn2CC(COc2cccnc2)C1 (stereo partly drawn),-6.503%,1.722%
CC(O)CN1CC2(CCC1=O)CCN(C(=O)c1cnn(C)c1)CC2 (stereo not drawn),8.589%,2.058%
[H][C@@]12COC[C@@H](CC(=O)NCCOC)[C@]1([H])CN(Cc1cccnc1)C2,-13.71%,-
c1cnn(CC2CCCCN2Cc2noc(C3CC3)n2)c1 (stereo not drawn),5.261%,1.15%
O=C(O)C(F)(F)F.O=C(O)C(F)(F)F.[H][C@]12CN(C)C[C@@]1(C(=O)O)CCCN(Cc1ccc(C)s1)C2,-93.43%,-
Cc1cc(C)n(-c2cncc(NCCNC(=O)C3CCCC3)n2)n1,-37.51%,2.8%
COCCNC(=O)Cn1cc(NC(=O)c2ccc(C(C)(C)C)cc2)cn1,-15.79%,5.241%
Cc1cccc(S(=O)(=O)N2C[C@H]3C[C@H](C(=O)N(C)C)[C@@H](C2)O3)c1,-,1.718%
CCNc1ncc(C(=O)N[C@@H](C)[C@H](O)c2ccccc2)cn1,-17.14%,-0.08436%
COCc1nc2cc(NCc3cc[nH]n3)ccc2o1,25.69%,10.14%
NS(=O)(=O)c1ccc(NCc2ccccc2)cc1C(F)(F)F,27.56%,-1.971%
CC(C)CNC(=O)CN1CCCC(c2ccc(C(=O)O)cc2)C1 (stereo not drawn),-8.41%,7.252%
CCSCC(C)NCc1ccccc1-n1ccnc1 (stereo not drawn),-19.96%,1.816%
Cc1ccc(NC2CCN(C(=O)c3ccc(C(N)=O)s3)CC2)nn1,1.421%,0.275%
Cc1cccnc1NC(=O)C1CCN(C(C)C(=O)NC(C)(C)C)CC1 (stereo not drawn),-16.21%,1.354%
CCS(=O)(=O)NCC(=O)N1CCC(c2cc3ccccc3[nH]2)CC1,-65.74%,8.9%
O=C(c1cccc(S(=O)(=O)NCCc2nccs2)c1)N1CCOCC1,-16.67%,4.449%
CCC(CC)Cn1ncc(N2CCOCC2)cc1=O,-20.06%,1.034%
COCCC(=O)N1C[C@H]2CC[C@@H]1CN(C1Cc3ccccc3C1)C2,-,7.931%
CSc1ccccc1CC1CCCS(=O)(=O)C1 (stereo not drawn),-37.96%,0.26%
Cn1ncc(Cl)c1C(=O)N1CCc2nc3sccc3c(=O)n2CC1,-4.132%,1.079%
COC[C@@H]1CC[C@H]2[C@H](CCN2C(=O)c2ccncc2F)O1,-,-0.5891%
CC(C)CNc1c(NCc2ccco2)c(=O)c1=O,-30.58%,0.6892%
COc1c(CNCc2ccc(CN(C)C)cc2)c(C(C)C)nn1C,-17.03%,-0.9095%
CCc1nccn1CC(=O)N1C[C@H]2CC[C@@H]1CN(c1ncccn1)C2,-,4.557%
COCc1cc(CNC(=O)c2c(C)cc(C)[nH]c2=O)n[nH]1,1.944%,3.959%
CCC(CC)C(CNC(=O)Nc1ccc(C)cc1)N1CCOCC1 (stereo not drawn),35.99%,9.659%
CN(C)C1CCN(C(=O)c2cc(-c3ccn(C)n3)n3ccccc23)CC1,-,1.607%
O=C(O)c1cccnc1CN1CCOc2ccccc2C1,-1.159%,7.189%
Cc1cnccc1NC(=O)CCc1ccsc1,-2.721%,0.2063%
COc1cc(C)c(C2CC(=O)Nc3cc(NS(C)(=O)=O)ccc32)cc1C (stereo not drawn),25.67%,9.999%
CCOCc1ccccc1NC(=O)NCC(C)(O)c1cccs1 (stereo not drawn),-46.58%,2.841%
CN(C)S(=O)(=O)c1ccc(CNC(=O)c2cn3c(n2)CNCC3)cc1,-57.29%,-1.987%
CC(c1c(F)cccc1F)N1CCN(Cc2nccn2C)CC1 (stereo not drawn),-5.64%,-1.828%
CCCS(=O)(=O)NCc1cccnc1Oc1ccc(C)c(F)c1F,35.25%,6.717%

The last 4 entries again:

| Compound | T. brucei | PfKRS1 |
|---|---|---|
| `CCOCc1ccccc1NC(=O)NCC(C)(O)c1cccs1` (stereo not drawn) | -46.58% | 2.841% |
| `CN(C)S(=O)(=O)c1ccc(CNC(=O)c2cn3c(n2)CNCC3)cc1` | -57.29% | -1.987% |
| `CC(c1c(F)cccc1F)N1CCN(Cc2nccn2C)CC1` (stereo not drawn) | -5.64% | -1.828% |
| `CCCS(=O)(=O)NCc1cccnc1Oc1ccc(C)c(F)c1F` | 35.25% | 6.717% |